Literature values, collected in publication PMC4501119, “Cholestenoic acid, an endogenous cholesterol metabolite, is a potent γ-secretase modulator” (Molecular Neurodegeneration, 2015).
Like-named read-outs stand apart in the source and are kept apart here.

Set-up: method as in PMID 25271621
Conditions: cited from earlier work

CC(CCC[C@@H](C)C(=O)O)[C@H]1CCC2C3CC=C4C[C@@H](O)CC[C@]4(C)C3CC[C@@]21C (stereo partly drawn) [Cmpd 2a, 25(R)-cholestenoic acid]
mouse brain CA level (before loss of Cyp7b1): ~ 30 nM
mouse brain CA level (loss of Cyp7b1): ~ 300 nM
